# Primary screen of a compound library

Chains of the proteins cited; added tags and fusions are not shown. Residues count along the entry.
UniProt Q8IDJ8, 1-583: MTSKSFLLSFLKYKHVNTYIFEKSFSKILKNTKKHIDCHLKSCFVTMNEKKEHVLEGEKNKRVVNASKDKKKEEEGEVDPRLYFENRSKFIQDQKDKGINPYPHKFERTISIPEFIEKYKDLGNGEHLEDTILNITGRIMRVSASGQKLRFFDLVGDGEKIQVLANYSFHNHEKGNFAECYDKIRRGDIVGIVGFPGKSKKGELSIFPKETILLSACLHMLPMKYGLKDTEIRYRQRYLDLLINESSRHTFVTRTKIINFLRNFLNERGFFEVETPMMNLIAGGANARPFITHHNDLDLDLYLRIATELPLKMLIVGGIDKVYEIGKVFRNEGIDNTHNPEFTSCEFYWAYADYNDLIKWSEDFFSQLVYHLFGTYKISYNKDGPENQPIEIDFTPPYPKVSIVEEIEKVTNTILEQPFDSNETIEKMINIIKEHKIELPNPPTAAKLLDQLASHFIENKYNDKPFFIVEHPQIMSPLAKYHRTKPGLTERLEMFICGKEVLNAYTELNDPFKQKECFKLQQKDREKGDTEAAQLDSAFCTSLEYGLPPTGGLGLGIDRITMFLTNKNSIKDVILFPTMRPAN

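Lysine-tRNA ligase, Plasmodium falciparum 3D7 (UniProt Q8IDJ8). Enzyme assay of the cytosolic lysyl-tRNA synthetase in 384-well plates, read by luminescence. Compounds at 30 µM. Higher reads as stronger inhibition, judged from the few compounds that gave an IC50. Of about 69,000 compounds tested this way, about 49 (0.071%) reached 50% or more in at least one test.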

Results are given as percent effect.
The controls that fix the scale are not given in the record; negative values are as filed.
This is an unselected part of the compounds tested.

Compound	effect
Cc1cc(C)c(S(=O)(=O)Nc2c(C)nc(N(C)C)nc2C)cc1C	0.1138%
Cc1nc(C(C)(C)C)sc1C(=O)NCCNc1ncccc1C#N	-0.981%
O=C(NC1CC1)C1CN(C(=O)c2cnccn2)C1	6.553%
COc1cccn(CC(=O)N(C)Cc2ccoc2)c1=O	1.429%
Clc1ccc(C2(NCc3noc(C4CC4)n3)CCCC2)cc1	2.141%
CNc1nc(C)cc(NC2CCCN(C3Cc4ccccc4C3)C2)n1 (stereo not drawn)	5.878%
CCn1c(C2CCCN(Cc3cc(OC)cc(OC)c3)C2)nn(C)c1=O (stereo not drawn)	2.436%
O=C(C1CCC1)N1C[C@H]2CNC[C@H]2C1	-1.817%
CN(CCc1nccs1)C(=O)CC1(O)CCCCC1	2.951%
CN(Cc1ccco1)Cc1ccccc1CNC(=O)c1ccncc1	-3.238%
CCc1cnc(CN(C)C2CCN(CC3CCC3)C2)o1 (stereo not drawn)	11.45%
CCn1nc(C(C)C)cc1C(=O)NCCCOC	10.96%
Cc1ccc(S(=O)(=O)CCC(=O)N(C)Cc2cnn(C)c2)cc1	-11.07%
CCN(CCNC(=O)c1ccccc1Br)C1CC1	3.339%
Cc1ncccc1CNC(CCO)C1CCCCC1 (stereo not drawn)	-0.3022%
Cc1nc(Nc2cnccn2)cc(C2CCCN(C(C)C)C2)n1 (stereo not drawn)	1.909%
Cc1nccc(NCc2cncc3c2CCN(CC2CC2)C3)n1	3.503%
CN(Cc1cccs1)C(=O)CNC1CCc2ncnn2C1 (stereo not drawn)	2.129%
CC(C)C(NC(=O)Nc1ccccn1)c1cccs1 (stereo not drawn)	1.785%
O=C(N1CCCC1)N1C[C@@H](OCc2cccnc2)[C@H]2OCCC[C@H]21	10.72%
O=C(NCCc1csc(-c2cccnc2)n1)c1cnn2c1CCCC2	1.787%
CCOc1ccc(NC(=O)Nc2cnc(N3CCOCC3)nc2)cc1	1.12%
Cc1ccc2c(c1)SCC(=O)N2CC(=O)N1CCCC1c1cc(C)no1 (stereo not drawn)	-8.395%
Cc1cc(C(=O)N2CCCC(c3cc(C(F)(F)F)[nH]n3)C2)on1 (stereo not drawn)	0.1714%
Cc1ccc(CN2CCC3(CC2)C(=O)N(C)c2ccccc23)s1	14.49%
NC(=O)C1CCCN(S(=O)(=O)c2cnn(-c3ccccc3)c2)C1 (stereo not drawn)	1.594%
CC(C)CC(=O)N1CCCn2cnc(CNS(C)(=O)=O)c2C1	6.32%
O=C(c1cccnc1N1CCCC1)N1CCOC(c2ccccc2)C1 (stereo not drawn)	5.573%
CN(C)CCO[C@H]1CN(Cc2ccc3c(c2)OCO3)[C@@H]2COC[C@H]12	9.163%
CC(C)c1nccn1C1CCCN(C(=O)CCNS(C)(=O)=O)C1 (stereo not drawn)	1.402%
Cn1ncnc1NCc1ccc(Cl)cc1	-1.853%
CC1CN(C)CCN1CC(=O)NCCOc1ccc(Cl)cc1 (stereo not drawn)	-2.4%
CCOc1ccccc1C(C(=O)O)N(C)Cc1nnc(C)o1 (stereo not drawn)	0.1553%
NS(=O)(=O)c1cnc(NCC2(c3cccc(F)c3)CCOCC2)s1	7.187%
Cc1ncc(CN(C)C2CCCN(Cc3noc(C4CC4)n3)C2)s1 (stereo not drawn)	4.596%
O=C(c1cccc2cc[nH]c12)N1CCC2(CCOC2)C1 (stereo not drawn)	4.522%
O=C1CCN(C(=O)NCCCc2ccc(Cl)cc2Cl)CCN1	-0.09386%
Cc1cc2n(n1)CC(CNC1CCN(c3ccc(F)cc3)CC1)CN2 (stereo not drawn)	2.145%
O=C(NC1CCN(c2ncccc2F)C1)c1cccc(-n2ccnc2)c1 (stereo not drawn)	4.871%
Cn1cc(-c2noc(C3(C)CCOCC3)n2)cn1	3.818%
Cc1ccc2cc(C3(O)CCN(C(=O)[C@@H]4CCCCN4)CC3)ccc2n1	-2.09%
COc1ccccc1CN1CC(O)CN(S(=O)(=O)C(C)C)CC1=O (stereo not drawn)	0.1508%
COC(=O)N1CCN(Cc2ccccc2Cl)CC1	6.01%
CCOc1ccc(CN(CCOC)c2nc(C)nc3oc(C)nc23)cc1	5.183%
O=C(NCc1ccccn1)N(Cc1ccc(F)cc1F)C1CC1	13.5%
CCN1CCCC1CN(CCN(C)C)S(=O)(=O)c1ccccc1C#N (stereo not drawn)	-4.104%
COCCOc1ncccc1C(=O)Nc1ccc(-n2cncn2)c(F)c1	-2.777%
COC(=O)C1CN(CC(=O)Nc2ccccc2Cl)c2ccccc21 (stereo not drawn)	0.9645%
CCn1cc(NC(=O)C2CCN(Cc3nc(C(C)C)no3)CC2)cn1	0.6888%
Cc1nc(C2(O)CCCNCC2)sc1CCOc1ccc(Cl)cc1 (stereo not drawn)	2.503%
Cc1noc(C(C)N2CCN(CCOCC(F)(F)F)CC2)n1 (stereo not drawn)	-1.851%
COc1cc(N2CCN(CC3CC3)c3nc(C)ccc3C2)ncn1	3.733%
O=S(=O)(C1CC1)N1CC[C@@H](OCC2CC2)[C@@H]1Cc1ccncc1	-1.962%
Cc1nn(C)c2ncc(S(=O)(=O)N3CCCC(C)CC3)cc12 (stereo not drawn)	2.025%
CN(C)[C@@H]1CCN(C(=O)c2ccccn2)[C@H]1Cc1ccncc1	2.239%
CC(C)C(Sc1nnc(C2CC2)n1C1CC1)C(=O)NCc1cccnc1 (stereo not drawn)	2.794%
Cc1ccccc1C(=O)NCCCN1CCc2ccccc2C1	-1.388%
O=C(C1CCCN1Cc1nc(-c2ccco2)no1)N1CCSCC1 (stereo not drawn)	0.3714%
CC(C)CCNC(=O)C1CCN(c2ccc3nnc(C(C)C)n3n2)CC1	3.637%
Cc1cc(NS(=O)(=O)c2ccccc2F)ccc1-n1cccc1C(=O)O	7.557%
N#Cc1ccccc1CN1C[C@H]2CC[C@@H]1CN(C(=O)c1cccnc1)C2	3.714%
CCOc1cccc(C(=O)NCCC(=O)Nc2ccncc2)c1	0.8938%
C[C@@H]1CN(C(=O)c2ccncc2)CC[C@@]1(O)C1CCOCC1	1.704%
COc1ccccc1OC1(C(=O)O)CCN(c2nccnc2OC)CC1	-0.2777%
NC(=O)c1c(NC(=O)C2CCCO2)sc2c1CCc1ccccc1-2 (stereo not drawn)	4.077%
Cc1cc(N2CCCN(Cc3ccc(C)o3)CC2)ccn1	8.125%
Cc1nc(C2CCCNC2)cc(N(C)CCc2cn[nH]c2)n1 (stereo not drawn)	2.273%
Cc1cc(C)n(CC2CN(CC(=O)NC3CCOCC3)CCO2)n1 (stereo not drawn)	-2.809%
CCNC(=O)[C@@H]1C[C@H](N)CN1Cc1ccc2cccc(Cl)c2n1	3.79%
Cn1ccc(-c2cc(C(=O)N3CCOCC3)c3ccccn23)n1	-6.182%
COc1ncccc1CNC(=O)NCCNS(C)(=O)=O	0.7176%
O=C(CN1CCc2sccc2C1)Nc1nccs1	-0.2505%
COCCN1CC2(CCN(C(=O)c3ccno3)CC2)c2ccccc21	-0.7818%
Cc1cc(C(F)(F)F)nn1C(C)C(=O)NN1CCN(C)CC1 (stereo not drawn)	0.3906%
CO[C@H]1C[C@@H](O)C12CCN(C(=O)c1cccc(CCC(C)(C)O)c1)CC2	0.577%
Cc1cc(N2CCC(O)(C(=O)O)CC2)nc2ccccc12	-0.8823%

Repeated from the top, 10 entries:

Result for Cc1cc(C)c(S(=O)(=O)Nc2c(C)nc(N(C)C)nc2C)cc1C was 0.1138%.
Result for Cc1nc(C(C)(C)C)sc1C(=O)NCCNc1ncccc1C#N was -0.981%.
Result for O=C(NC1CC1)C1CN(C(=O)c2cnccn2)C1 was 6.553%.
Result for COc1cccn(CC(=O)N(C)Cc2ccoc2)c1=O was 1.429%.
Result for Clc1ccc(C2(NCc3noc(C4CC4)n3)CCCC2)cc1 was 2.141%.
Result for CNc1nc(C)cc(NC2CCCN(C3Cc4ccccc4C3)C2)n1 (stereo not drawn) was 5.878%.
Result for CCn1c(C2CCCN(Cc3cc(OC)cc(OC)c3)C2)nn(C)c1=O (stereo not drawn) was 2.436%.
Result for O=C(C1CCC1)N1C[C@H]2CNC[C@H]2C1 was -1.817%.
Result for CN(CCc1nccs1)C(=O)CC1(O)CCCCC1 was 2.951%.
Result for CN(Cc1ccco1)Cc1ccccc1CNC(=O)c1ccncc1 was -3.238%.

Source: ChEMBL document CHEMBL3988442, “University of Dundee, Small-Polar-MMV Screening Library” (2021).